Data published in article PMC11018607, “A widely conserved protein Rof inhibits transcription termination factor Rho and promotes Salmonella virulence program” (Nature Communications, 2024).
These are yes or no findings as the source states them, for the method shown.

Target: Rof (Rho-off, YaeO), E. coli (E. coli) (UniProt P0AFW8)
Experiment: SEC; gel filtration of purified Rof alone and of purified Rho alone; both purified

B1: Rof (Rho-off, YaeO), E. coli (natural protein)
chain: MNDTYQPINCDDYDNLELACQHHLMLTLELKDGEKLQAKASDLVSRKNVEYLVVEAAGETRELRLDKITSFSHPEIGTVVVSES
notes: Protein Rof (YaeO), E. coli, expressed from pET22b-rof; In the cryo-EM map density was absent for Rof residues 1-5; No removal of the tag is described; also called EcRof; source: E. coli BL21(DE3) transformed with pET22b-rof, purified (Ni-NTA, Superdex 200)
B1 was tested, and the binding was “no binding”.
